Experimental data from article PMC7791875.
No constants are given. Whether binding was seen depends on the method and setting. Binding seen in cells or lysates may run through a third protein. Some entries that bind do so weakly or less than the wild type.

The chains behind the UniProt entries cited, without tags or fusion partners. Where a name states a change or a piece, a line headed by the entry shows the natural chain unless it says otherwise. Residues count along the entry.
UniProt Q9HC29: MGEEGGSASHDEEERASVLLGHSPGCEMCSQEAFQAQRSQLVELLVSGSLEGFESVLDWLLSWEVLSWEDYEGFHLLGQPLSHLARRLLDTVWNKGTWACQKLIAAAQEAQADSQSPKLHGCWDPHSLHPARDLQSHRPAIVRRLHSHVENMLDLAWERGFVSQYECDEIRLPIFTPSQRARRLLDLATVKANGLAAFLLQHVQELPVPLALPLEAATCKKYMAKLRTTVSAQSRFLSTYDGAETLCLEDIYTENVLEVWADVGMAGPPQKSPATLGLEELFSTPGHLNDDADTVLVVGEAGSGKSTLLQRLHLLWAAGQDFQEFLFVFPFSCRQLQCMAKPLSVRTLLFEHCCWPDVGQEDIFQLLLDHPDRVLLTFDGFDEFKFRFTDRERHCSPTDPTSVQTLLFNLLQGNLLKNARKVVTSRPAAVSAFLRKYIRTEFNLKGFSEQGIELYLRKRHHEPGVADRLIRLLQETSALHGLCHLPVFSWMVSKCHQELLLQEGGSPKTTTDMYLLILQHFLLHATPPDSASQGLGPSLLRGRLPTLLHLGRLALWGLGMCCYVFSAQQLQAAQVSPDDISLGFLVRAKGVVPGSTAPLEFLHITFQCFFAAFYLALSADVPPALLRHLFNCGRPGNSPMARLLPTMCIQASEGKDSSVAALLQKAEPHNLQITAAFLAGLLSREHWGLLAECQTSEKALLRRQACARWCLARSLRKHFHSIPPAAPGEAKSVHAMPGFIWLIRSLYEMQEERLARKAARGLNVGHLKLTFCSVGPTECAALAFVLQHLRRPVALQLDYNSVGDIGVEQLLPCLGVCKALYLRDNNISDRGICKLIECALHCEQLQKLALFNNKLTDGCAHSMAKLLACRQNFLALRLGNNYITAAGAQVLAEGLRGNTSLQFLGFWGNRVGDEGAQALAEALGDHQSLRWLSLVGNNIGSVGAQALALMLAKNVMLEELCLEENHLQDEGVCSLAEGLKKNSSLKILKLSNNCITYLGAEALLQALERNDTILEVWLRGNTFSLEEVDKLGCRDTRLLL
NOD2 C-terminal LRR domain (amino acids 619-1040): residues 619-1040 of Q9HC29
UniProt P48678, residues 1-647: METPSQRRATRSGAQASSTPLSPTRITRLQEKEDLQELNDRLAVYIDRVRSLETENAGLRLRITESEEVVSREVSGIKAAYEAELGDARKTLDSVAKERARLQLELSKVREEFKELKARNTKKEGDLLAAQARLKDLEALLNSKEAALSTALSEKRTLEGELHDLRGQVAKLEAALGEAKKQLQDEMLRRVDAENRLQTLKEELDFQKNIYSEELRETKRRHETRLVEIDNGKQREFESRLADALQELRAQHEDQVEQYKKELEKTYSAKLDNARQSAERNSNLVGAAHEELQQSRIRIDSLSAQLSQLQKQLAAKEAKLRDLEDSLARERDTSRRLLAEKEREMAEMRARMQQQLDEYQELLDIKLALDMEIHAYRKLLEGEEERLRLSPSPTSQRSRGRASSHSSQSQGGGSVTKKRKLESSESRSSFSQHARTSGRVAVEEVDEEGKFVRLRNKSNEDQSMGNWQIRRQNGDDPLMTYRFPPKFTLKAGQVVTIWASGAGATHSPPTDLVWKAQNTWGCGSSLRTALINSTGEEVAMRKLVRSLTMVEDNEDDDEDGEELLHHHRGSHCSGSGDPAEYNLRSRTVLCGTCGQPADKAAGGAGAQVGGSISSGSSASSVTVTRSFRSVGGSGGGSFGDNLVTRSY
UniProt P02545, residues 1-646: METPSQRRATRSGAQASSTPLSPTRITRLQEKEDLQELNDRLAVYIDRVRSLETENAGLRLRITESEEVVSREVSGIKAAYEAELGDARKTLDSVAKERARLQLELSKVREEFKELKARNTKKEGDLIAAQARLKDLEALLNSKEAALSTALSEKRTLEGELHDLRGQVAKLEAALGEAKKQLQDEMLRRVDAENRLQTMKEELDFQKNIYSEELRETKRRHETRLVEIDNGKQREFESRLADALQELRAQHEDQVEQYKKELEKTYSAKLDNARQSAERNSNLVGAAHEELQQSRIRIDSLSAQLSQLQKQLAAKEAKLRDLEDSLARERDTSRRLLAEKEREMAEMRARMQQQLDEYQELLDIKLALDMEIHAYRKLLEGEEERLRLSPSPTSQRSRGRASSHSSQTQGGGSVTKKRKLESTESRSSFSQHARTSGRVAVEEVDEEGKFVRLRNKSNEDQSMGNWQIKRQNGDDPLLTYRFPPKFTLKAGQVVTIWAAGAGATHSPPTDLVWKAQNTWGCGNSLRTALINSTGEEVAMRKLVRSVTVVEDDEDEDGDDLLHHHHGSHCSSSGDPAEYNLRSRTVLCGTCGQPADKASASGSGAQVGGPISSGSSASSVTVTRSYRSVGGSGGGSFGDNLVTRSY

How the values were obtained:
GST-NOD2 = GST-NOD2 (UniProt Q9HC29); test: pull-down; GST pull-down with purified GST-NOD2; source of lamin A/C not told in the text shown
[1] = biological target: NOD2 C-terminal LRR domain (amino acids 619-1040) (UniProt Q9HC29); test: as above
[2] = biological target: lamin A/C, endogenous in primary hepatocytes (mouse (endogenous in primary mouse hepatocytes)) (UniProt P48678); test: co-IP; bidirectional co-IP of endogenous proteins in primary hepatocytes

lamin A/C (in the GST pull-down assay) (from UniProt P02545 1-646)
binding (GST-NOD2): binds | binding [1]: binds

B1: NOD2 (nucleotide-binding oligomerization domain 2), endogenous in primary hepatocytes (protein, UniProt Q8K3Z0 1-1020)
chain: MRSSCCDMCSQEEFQAQRSQLVALLISGSLEGFESILDWLLSWDVLSREDYEGLSLPGQPLSHSARRLLDTVWNKGVWGCQKLLEAVQEAQANSHTFELYGSWDTHSLHPTRDLQSHRPAIVRRLYNHVEAMLELAREGGFLSQYECEEIRLPIFTSSQRARRLLDLAAVKANGLAAFLLQHVRELPAPLPLPYEAAECQKFISKLRTMVLTQSRFLSTYDGSENLCLEDIYTENILELQTEVGTAGALQKSPAILGLEDLFDTHGHLNRDADTILVVGEAGSGKSTLLQRLHLLWATGRSFQEFLFIFPFSCRQLQCVAKPLSLRTLLFEHCCWPDVAQDDVFQFLLDHPDRVLLTFDGLDEFKFRFTDRERHCSPIDPTSVQTLLFNLLQGNLLKNACKVLTSRPDAVSALLRKFVRTELQLKGFSEEGIQLYLRKHHREPGVADRLIQLIQATSALHGLCHLPVFSWMVSRCHRELLLQNRGFPTTSTDMYLLILQHFLLHASPPDSSPLGLGPGLLQSRLSTLLHLGHLALRGLAMSCYVFSAQQLQAAQVDSDDISLGFLVRAQSSVPGSKAPLEFLHITFQCFFAAFYLAVSADTSVASLKHLFSCGRLGSSLLGRLLPNLCIQGSRVKKGSEAALLQKAEPHNLQITAAFLAGLLSQQHRDLLAACQVSERVLLQRQARARSCLAHSLREHFHSIPPAVPGETKSMHAMPGFIWLIRSLYEMQEEQLAQEAVRRLDIGHLKLTFCRVGPAECAALAFVLQHLQRPVALQLDYNSVGDVGVEQLRPCLGVCTALYLRDNNISDRGARTLVECALRCEQLQKLALFNNKLTDACACSMAKLLAHKQNFLSLRVGNNHITAAGAEVLAQGLKSNTSLKFLGFWGNSVGDKGTQALAEVVADHQNLKWLSLVGNNIGSMGAEALALMLEKNKSLEELCLEENHICDEGVYSLAEGLKRNSTLKFLKLSNNGITYRGAEALLQALSRNSAILEVWLRGNTFSLEEIQTLSSRDARLLL
binding [2]: binds
